PubChem BioAssay AID686938 | Drosophila RNAi Screening Center | 2013
In all, the deposit lists about 23,000 reagents; shown is an unselected part of those with a known target gene and a result. In the full data, 75 (0.33%) were called active. 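Raw plate signals without normalisation; calls rest on plate z-scores that were not deposited; ratio present for only 364 wells.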 Names joined by + are all predicted targets of the reagent. Reagent sequences are not shown. Not stated in the record: the dose of the treatment.

Assay: 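Fly genes required for calcium entry once internal stores are emptied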 (primary screen)
Cells: Drosophila S2R+ cells
Reagent: long dsRNA against Drosophila genes, about 0.25 µg dsRNA per well, roughly 10,000 cells
Timing: 5 days of knock-down before the calcium assay
Challenge: thapsigargin (SERCA pump blocker) to empty calcium stores; entry signal taken 4 min after adding it
Read-out: 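Per-well fluo-4 fluorescence in two replicates, unnormalised, measured in resting cells and 4 min after store depletion by the SERCA blocker thapsigargin; ratio of the two present in few wells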
Scale: calcium entry signal: higher = stronger calcium signal after store depletion; entry to resting ratio: higher = more calcium entry relative to resting level; resting calcium signal: higher = higher resting calcium signal
Call rule: 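Hit if the duplicate-averaged plate z-score for entry over resting signal is under −3; wells with weak total dye signal (Fmax z < −2) or more than 5 off-targets removed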
Meaning of the calls: active = strongly reduced calcium entry; inactive = no strong reduction

Gene | dsRNA | calcium entry signal, replicate 1 (fluorescence units) | calcium entry signal, replicate 2 (fluorescence units) | entry to resting ratio | resting calcium signal, replicate 1 (fluorescence units) | resting calcium signal, replicate 2 (fluorescence units) | outcome
CG31496 | DRSC12547 | 3.57e7 | 2.13e7 | – | 1.87e7 | 1.16e7 | inactive
sra (sarah) | DRSC17015 | 2.70e7 | 2.35e7 | – | 1.23e7 | 1.04e7 | inactive
homer | DRSC03547 | 3.24e7 | – | – | 1.79e7 | – | inactive
betaNACtes1 (Nascent-associated complex beta-subunit-like, testis 1) | DRSC19534 | 3.24e7 | 2.89e7 | – | 1.66e7 | 1.34e7 | inactive
CG42471 | DRSC01210 | 4.79e7 | 4.73e7 | – | 2.33e7 | 2.21e7 | inactive
CG13566 | DRSC04203 | 3.82e7 | 4.47e7 | – | 1.96e7 | 2.07e7 | inactive
CycC (Cyclin C) | DRSC16619 | 3.75e7 | 4.90e7 | – | 1.47e7 | 1.97e7 | inactive
CG18765 | DRSC15392 | 4.67e7 | 3.84e7 | – | 2.14e7 | 2.06e7 | inactive
betaTub85D (beta-Tubulin at 85D) | DRSC16910 | 1.74e7 | 2.38e7 | – | 1.18e7 | 1.47e7 | inactive
beta'COP (Coat Protein (coatomer) beta') | DRSC03492 | 1.76e7 | – | – | 1.56e7 | – | inactive
CG10839 | DRSC01965 | 4.06e7 | 3.95e7 | – | 1.80e7 | 1.84e7 | inactive
brun (brunelleschi) | DRSC02706 | 4.23e7 | – | – | 2.02e7 | – | inactive
GckIII (Germinal centre kinase III) | DRSC15729 | 3.05e7 | 3.82e7 | – | 1.56e7 | 6.40e7 | inactive
Ythdc1 (YTH domain containing 1) | DRSC08141 | 4.65e7 | 3.51e7 | – | 2.98e7 | 1.62e7 | inactive
CG13989 | DRSC02321 | 4.26e7 | 3.57e7 | – | 2.03e7 | 1.76e7 | inactive
Roc1b + Cdc5 | DRSC08687 | 3.49e7 | 3.36e7 | – | 1.92e7 | 1.80e7 | inactive
en (engrailed) | DRSC07609 | 4.56e7 | 3.54e7 | – | 2.68e7 | 1.76e7 | inactive
CG15435 | DRSC00450 | 2.52e7 | 1.98e7 | – | 1.15e7 | 1.01e7 | inactive

Laid out differently: results already given.
CG42471 [DRSC01210]: calcium entry signal, replicate 1 (fluorescence units) = 4.79e7; calcium entry signal, replicate 2 (fluorescence units) = 4.73e7; resting calcium signal, replicate 1 (fluorescence units) = 2.33e7; resting calcium signal, replicate 2 (fluorescence units) = 2.21e7; outcome = inactive
CG13566 [DRSC04203]: calcium entry signal, replicate 1 (fluorescence units) = 3.82e7; calcium entry signal, replicate 2 (fluorescence units) = 4.47e7; resting calcium signal, replicate 1 (fluorescence units) = 1.96e7; resting calcium signal, replicate 2 (fluorescence units) = 2.07e7; outcome = inactive
CycC (Cyclin C) [DRSC16619]: calcium entry signal, replicate 1 (fluorescence units) = 3.75e7; calcium entry signal, replicate 2 (fluorescence units) = 4.90e7; resting calcium signal, replicate 1 (fluorescence units) = 1.47e7; resting calcium signal, replicate 2 (fluorescence units) = 1.97e7; outcome = inactive

Further results follow:
Gene | dsRNA | calcium entry signal, replicate 1 (fluorescence units) | calcium entry signal, replicate 2 (fluorescence units) | entry to resting ratio | resting calcium signal, replicate 1 (fluorescence units) | resting calcium signal, replicate 2 (fluorescence units) | outcome
CG2256 | DRSC18220 | 3.52e7 | 4.12e7 | – | 1.74e7 | 1.94e7 | inactive
RhoGEF3 (Rho guanine nucleotide exchange factor 3) | DRSC08266 | 2.36e7 | 2.07e7 | – | 1.82e7 | 1.36e7 | inactive
RhoGEF3 (Rho guanine nucleotide exchange factor 3) | DRSC08351 | 4.32e7 | 5.14e7 | – | 2.19e7 | 2.26e7 | inactive
RhoGEF3 (Rho guanine nucleotide exchange factor 3) | DRSC08352 | 3.41e7 | 5.00e7 | – | 1.80e7 | 2.14e7 | inactive
RhoGEF3 (Rho guanine nucleotide exchange factor 3) | DRSC08353 | 4.37e7 | 4.76e7 | – | 2.09e7 | 1.91e7 | inactive
spir (spire) | DRSC03619 | 3.93e7 | 4.31e7 | – | 1.89e7 | 1.78e7 | inactive
step (steppke) | DRSC03694 | 2.99e7 | 3.59e7 | – | 1.42e7 | 1.65e7 | inactive
step (steppke) | DRSC03699 | 5.25e7 | 3.58e7 | – | 2.58e7 | 1.52e7 | inactive
dmGlut (Dietary and metabolic glutamate transporter) | DRSC02835 | 5.53e7 | – | – | 2.67e7 | – | inactive
CG3552 | DRSC10370 | 2.53e7 | 3.20e7 | – | 1.31e7 | 1.44e7 | inactive
CG32204 | DRSC09574 | 2.05e7 | 3.06e7 | – | 9.89e6 | 1.37e7 | inactive
KaiR1D (Kainate-type ionotropic glutamate receptor subunit 1D) | DRSC15516 | 3.51e7 | 4.70e7 | – | 6.90e7 | 2.17e7 | inactive
CG12118 | DRSC17813 | 3.17e7 | 3.39e7 | – | 1.57e7 | 1.59e7 | inactive
CG7639 | DRSC07026 | 3.51e7 | 4.98e7 | – | 1.85e7 | 2.12e7 | inactive
CG30095 | DRSC07175 | 4.50e7 | 4.49e7 | – | 1.95e7 | 2.13e7 | inactive
Jon99Fii (Jonah 99Fii) | DRSC15430 | 3.02e7 | 4.51e7 | – | 1.65e7 | 1.91e7 | inactive
CG5323 | DRSC06929 | 5.82e7 | 5.33e7 | – | 2.67e7 | 2.68e7 | inactive
CG30338 | DRSC05166 | 3.00e7 | 4.94e7 | – | 1.57e7 | 2.07e7 | inactive
chp (chaoptin) | DRSC16925 | 2.72e7 | 3.21e7 | – | 1.15e7 | 1.51e7 | inactive
Dph2 (Diphthamide biosynthesis 2) | DRSC16222 | 4.30e7 | 4.56e7 | – | 1.76e7 | 1.99e7 | inactive
Rift (Riboflavin transporter) | DRSC14330 | 3.69e7 | 4.90e7 | 2 | 1.80e7 | 2.03e7 | inactive
CG16879 (retired record) | DRSC01918 | 4.71e7 | 4.30e7 | – | 1.92e7 | 2.05e7 | inactive
CG16879 (retired record) | DRSC22849 | 2.23e7 | 3.91e7 | – | 1.20e7 | 1.71e7 | inactive
